From article PMC2694275
Results are given in words; binding and its absence hold for the method and conditions named. For some assays here: In cells and extracts the contact can be indirect. Some results given as binding are weak or reduced against the parent protein; the word gives no strength. For some assays here: Where a sequence is shown, tags or fusion partners need not be part of it. Blank lines part the entries; values can stand above or below the molecule they belong to.

Sequences of proteins named here, by UniProt entry; tags and fusion partners are left off. A change or cut given only in a name is not applied to a line headed by its entry.
UniProt Q5S006: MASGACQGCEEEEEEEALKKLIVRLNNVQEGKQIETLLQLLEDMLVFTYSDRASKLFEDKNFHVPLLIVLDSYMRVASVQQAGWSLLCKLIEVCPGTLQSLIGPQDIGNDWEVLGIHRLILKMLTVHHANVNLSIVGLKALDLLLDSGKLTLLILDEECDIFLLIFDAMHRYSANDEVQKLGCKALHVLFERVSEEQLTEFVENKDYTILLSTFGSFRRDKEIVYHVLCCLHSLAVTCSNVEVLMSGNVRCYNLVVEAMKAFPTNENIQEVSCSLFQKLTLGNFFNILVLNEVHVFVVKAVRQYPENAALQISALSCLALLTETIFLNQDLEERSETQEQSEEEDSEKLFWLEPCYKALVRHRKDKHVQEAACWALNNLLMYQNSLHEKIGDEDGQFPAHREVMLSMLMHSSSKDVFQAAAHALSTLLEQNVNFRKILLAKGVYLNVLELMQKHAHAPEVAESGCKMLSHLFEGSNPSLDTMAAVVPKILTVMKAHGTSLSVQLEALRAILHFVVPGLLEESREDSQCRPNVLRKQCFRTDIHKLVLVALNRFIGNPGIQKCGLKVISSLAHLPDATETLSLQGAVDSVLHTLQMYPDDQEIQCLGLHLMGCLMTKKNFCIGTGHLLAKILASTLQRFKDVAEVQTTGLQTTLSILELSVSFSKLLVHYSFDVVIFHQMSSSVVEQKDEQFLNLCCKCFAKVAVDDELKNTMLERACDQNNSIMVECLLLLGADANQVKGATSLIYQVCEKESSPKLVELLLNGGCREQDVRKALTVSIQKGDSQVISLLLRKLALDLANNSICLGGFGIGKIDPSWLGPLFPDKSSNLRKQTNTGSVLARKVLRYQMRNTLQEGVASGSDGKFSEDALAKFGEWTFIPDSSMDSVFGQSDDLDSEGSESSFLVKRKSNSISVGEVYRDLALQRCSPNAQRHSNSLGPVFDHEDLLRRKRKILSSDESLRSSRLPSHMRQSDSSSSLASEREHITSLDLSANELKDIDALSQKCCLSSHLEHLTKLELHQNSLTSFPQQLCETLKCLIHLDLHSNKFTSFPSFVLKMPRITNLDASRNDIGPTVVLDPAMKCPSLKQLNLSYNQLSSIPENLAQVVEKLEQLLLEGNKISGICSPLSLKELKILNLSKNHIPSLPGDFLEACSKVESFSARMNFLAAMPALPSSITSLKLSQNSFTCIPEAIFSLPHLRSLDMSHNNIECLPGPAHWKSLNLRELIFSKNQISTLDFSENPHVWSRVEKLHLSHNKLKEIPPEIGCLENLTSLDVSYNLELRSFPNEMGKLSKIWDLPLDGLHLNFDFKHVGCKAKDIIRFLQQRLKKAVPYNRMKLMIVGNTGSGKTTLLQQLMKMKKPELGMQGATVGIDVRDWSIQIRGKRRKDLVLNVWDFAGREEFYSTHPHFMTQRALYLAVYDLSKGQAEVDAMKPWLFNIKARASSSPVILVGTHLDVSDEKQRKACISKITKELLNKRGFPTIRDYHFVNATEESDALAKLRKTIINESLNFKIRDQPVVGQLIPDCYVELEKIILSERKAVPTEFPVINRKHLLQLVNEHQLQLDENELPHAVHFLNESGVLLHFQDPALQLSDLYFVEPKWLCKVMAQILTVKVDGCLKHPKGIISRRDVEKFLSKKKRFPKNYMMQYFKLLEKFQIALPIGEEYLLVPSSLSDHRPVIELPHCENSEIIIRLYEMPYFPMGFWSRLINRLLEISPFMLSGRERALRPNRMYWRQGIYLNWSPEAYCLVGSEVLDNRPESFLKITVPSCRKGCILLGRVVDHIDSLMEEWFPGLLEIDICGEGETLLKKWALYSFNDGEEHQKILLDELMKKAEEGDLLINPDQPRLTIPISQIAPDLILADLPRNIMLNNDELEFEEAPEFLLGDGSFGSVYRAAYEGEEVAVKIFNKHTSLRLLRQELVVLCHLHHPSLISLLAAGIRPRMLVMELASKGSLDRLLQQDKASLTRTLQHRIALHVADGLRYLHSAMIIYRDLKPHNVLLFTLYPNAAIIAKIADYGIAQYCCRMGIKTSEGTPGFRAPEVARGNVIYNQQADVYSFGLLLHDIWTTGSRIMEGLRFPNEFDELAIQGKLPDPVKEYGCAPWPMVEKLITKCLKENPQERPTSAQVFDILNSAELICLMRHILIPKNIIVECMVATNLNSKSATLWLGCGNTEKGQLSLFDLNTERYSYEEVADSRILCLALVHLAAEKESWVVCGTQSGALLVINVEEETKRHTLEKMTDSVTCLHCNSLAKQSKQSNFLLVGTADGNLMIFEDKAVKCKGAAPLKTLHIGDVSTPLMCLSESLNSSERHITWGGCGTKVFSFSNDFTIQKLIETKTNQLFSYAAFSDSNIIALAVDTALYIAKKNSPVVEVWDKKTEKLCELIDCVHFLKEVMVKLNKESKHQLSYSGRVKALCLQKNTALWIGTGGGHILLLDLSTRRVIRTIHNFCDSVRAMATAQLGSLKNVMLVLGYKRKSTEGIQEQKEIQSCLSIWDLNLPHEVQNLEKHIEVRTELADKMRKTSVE
UniProt Q9UNE7: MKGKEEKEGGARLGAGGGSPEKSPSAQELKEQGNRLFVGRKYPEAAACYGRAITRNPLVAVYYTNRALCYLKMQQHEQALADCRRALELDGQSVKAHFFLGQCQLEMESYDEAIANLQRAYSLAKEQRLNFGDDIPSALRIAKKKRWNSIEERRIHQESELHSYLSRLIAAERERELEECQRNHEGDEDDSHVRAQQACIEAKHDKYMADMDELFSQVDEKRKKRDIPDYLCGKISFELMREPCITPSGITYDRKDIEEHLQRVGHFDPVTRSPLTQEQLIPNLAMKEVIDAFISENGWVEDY

How the values were obtained:
[1] = biological target: myc-tagged full-length LRRK2 (mouse) (UniProt Q5S006); experiment: co-IP; HEK293 co-transfected with pMyc-LRRK2, pFlag-Hsp90 and pHA-CHIP, 5 µM lactacystin, 48 h; IP with polyclonal anti-myc or rabbit IgG, blot with anti-HA, anti-Flag and anti-myc (Figure 7A)
[2] = biological target: myc-tagged full-length LRRK2 (mouse) (UniProt Q5S006); experiment: co-IP; HEK293 co-transfected with myc- and HA-tagged constructs; lysis in 50 mM Tris pH 7.4, 150 mM NaCl, 1% NP-40; IP with polyclonal anti-myc or anti-HA, blot with monoclonal anti-HA or anti-myc; 5 µM lactacystin in Figures 1 and 2; 1 µM geldanamycin for 1 h in Figure 2H and Figure S3
[3] = biological target: myc-tagged full-length LRRK2(D1994A) (mouse) (UniProt Q5S006); experiment: as above
[4] = biological target: myc-tagged full-length LRRK2(G2019S) (mouse) (UniProt Q5S006); experiment: as above
[5] = biological target: myc-tagged full-length LRRK2(R1441C) (mouse) (UniProt Q5S006); experiment: as above
[6] = biological target: HA-tagged full-length CHIP (UniProt Q9UNE7); experiment: as above
[7] = biological target: myc-tagged full-length LRRK2 (mouse) (UniProt Q5S006); experiment: co-IP; data not shown; full length CHIP(K30A) with full length LRRK2
[8] = biological target: T1, HA-tagged CHIP_(150–200) (mouse) (UniProt Q9WUD1); experiment: co-IP; HEK293 co-transfected with myc- and HA-tagged constructs; lysis in 50 mM Tris pH 7.4, 150 mM NaCl, 1% NP-40; IP with polyclonal anti-myc or anti-HA, blot with monoclonal anti-HA or anti-myc; 5 µM lactacystin in Figures 1 and 2; 1 µM geldanamycin for 1 h in Figure 2H and Figure S3
T1 sequence: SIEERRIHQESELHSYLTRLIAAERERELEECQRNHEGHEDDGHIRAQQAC

[9] = biological target: myc-tagged full-length LRRK2 (mouse) (UniProt Q5S006); experiment: co-IP; HEK293 transfected with only pMyc-LRRK2, 48 h; IP with polyclonal anti-myc or rabbit IgG, blot with anti-CHIP or anti-Hsp90 for the endogenous proteins (Figure 7B)
[10] = biological target: LRRK2 ROC domain (amino acids 1331–1512) bait in pGBKT7 (mouse) (UniProt Q5S006); experiment: two-hybrid; Matchmaker GAL4 system; LRRK2 domain baits in pGBKT7 (AH109) mated with a mouse brain cDNA library (Y187); SD/-Leu-Trp-His plus 5 mM 3-AT; retested by co-transformation on SD/-Leu-Trp-His-Ade plus 2 mM 3-AT, X-α-Gal and X-β-Gal assays
[11] = biological target: myc-tagged LRRK2 ROC domain (amino acids 1331–1512) (mouse) (UniProt Q5S006); experiment: co-IP; HEK293 co-transfected with myc- and HA-tagged constructs; lysis in 50 mM Tris pH 7.4, 150 mM NaCl, 1% NP-40; IP with polyclonal anti-myc or anti-HA, blot with monoclonal anti-HA or anti-myc; 5 µM lactacystin in Figures 1 and 2; 1 µM geldanamycin for 1 h in Figure 2H and Figure S3

binding [1]: binds | binding [2]: binds | binding [3]: binds | binding [4]: binds | binding [5]: binds
Molecule: HA-tagged full-length CHIP (from UniProt Q9UNE7 1-303) (enzyme)

binding [6]: binds
Molecule: myc-tagged full-length LRRK2 (from UniProt Q5S006 1-2527)

binding [7]: binds
Molecule: HA-tagged full length CHIP with the K30A point mutation (from UniProt Q9UNE7 1-303) (enzyme)

binding [8]: binds
Molecule: myc-tagged LRRK2 ROC domain (amino acids 1331–1512) (from UniProt Q5S006 1331-1512) (domain or fragment)

binding [9]: binds
Molecule: endogenous CHIP of HEK293 cells (from UniProt Q9UNE7 1-303) (enzyme)

binding [10]: binds
B1: CHIP charged domain, amino acid 150 to amino acid 200, prey clone from the mouse brain cDNA library (domain or fragment, UniProt Q9WUD1 150-200)
chain: SIEERRIHQESELHSYLTRLIAAERERELEECQRNHEGHEDDGHIRAQQAC

binding [11]: binds
B2: HA-tagged CHIP_(150–200) (domain or fragment, UniProt Q9WUD1 150-200)
chain: SIEERRIHQESELHSYLTRLIAAERERELEECQRNHEGHEDDGHIRAQQAC
